In PubChem BioAssay AID1508600 (Functional Genomics Laboratory (NCATS/FGL), 2020):
The whole screen tested about 53,000 sequences, of which about 3,700 (7%) were called active.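 The calls were made as follows: active = gene knockdowns whose robust z-score for IL-1 alpha signal is at least 2 or at most -2, so actives lie on both sides; inactive = the rest.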 Some of the results follow.

Assay: Components of the Cytosolic LPS Sensing Pathway: Gene Identification via Genome-wide siRNA Screen;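 also: robust z of the log signal after scaling to non-targeting control siRNA wells of the plate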
Conditions: RAW264.7 macrophages, IL-1a HTRF, actives lie on both sides, screened at 100 nM (by protocol), cells primed 5 h with Pam3CSK4 first
Method in brief: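 IL-1a HTRF of supernatants after 24 hour LipidA transfection of Pam3CSK4-primed (5 hours) RAW264.7 cells, 48h post-siRNA transfection (100 nM). Scores: percent of plate negative-control median, then log-based robust z-score.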

z-score, inactive:
GCUUAUGGGUGGCUUUAAGTT against Knop1 1.02, CGACUGGGUCUUAUGUUUATT against Tas2r121 -0.105, GCAGAGGACAAGAAGCUUATT against Macroh2a2 -1.4, GGUGCAUUCCUUGUGAAUGTT against Ctbp2 0.141, GGUGAAAAUCAAGCUUGCUTT against Htr1d -0.725, CGGGUAUCCAAAGUUGUUCTT against Hpx -1.09, GGAUCUUGAGUUGGAGUCCTT against Nupr1l -0.319, GGCAUAACCGCCAUGUCAGTT against Mnd1 -1.74, ACUGUCAUGCACCCUAAAGTT against Olfr132 0.369, GGCAAUGCUGGAUUCUCUATT against Capn15 0.0127, GGUAUUCUCUAAGAAGGAGTT against Kyat1 0.367, CCAAUCCUCAACCUUGAAUTT against Ddx19a 0.0508, CCCAGGCUAUGACGAUUAUTT against Ssrp1 0.21, GGAUUUUCAUACAAGGGCATT against Fmn1 0.579, GGCUCUGCUAUUCACCAGUTT against Olfr1008 0.442, CCGUUUCUUCCUAAUUGGUTT against Tmem41b 0.929, GGUAUUGCUGUGCUGAGGATT against Olfr675 0.858, GGCUGUGCAACAGAAAAUGTT against 2210407C18Rik -0.661, GGUCUAUGUCCAAAAAGAATT against Fam117b -1.45, GCCUAUUGUAAAUACAGGUTT against Bdnf 0.6, GGAAGGAAGUCAUUUUUUCTT against Msantd4 -1.29, CCGAAAUGUGUGUUUUAAATT against Vapb 1.57, GCAGUACAAGCGAUUUGUGTT against Duox2 -1.25, GGGUUAAAGUGCCACGUACTT against Apoc4 0.641, GGAGGAAAAGAAAAUUGAGTT against Nefm -0.125, CCCAUGUUCGAUGGGAAAGTT against Parp1 -0.186, GCAAGAAAAUCUGAUGCCGTT against Sumf2 -0.796, GGUGGACAAGAUGAUGGAATT against Gps2 1.92, GCUACUCAUUGCUAAGUGUTT against Kcnmb2 -0.588, GGUUAUGGAGACAAAGGAUTT against Sik1 -1.33, GCUGAAUUUUACGAUGAUUTT against Zc3h6 -0.88, GCUGUCCUUCUAUAACCCATT against Frmd5 -1.68, GGUUCGUUUUUUGUUGGAATT against Tmed4 1.31, GGAUGAACAGGAGAAAGUCTT against Irak2 -1.7, CCUACUCAGUGUCUUUCAATT against Esrp2 0.845, CCGGUACCUAAACUACUUCTT against Unc5b 1.23, GCGUAAACCAAGAAAGCUUTT against Mcl1 -0.738, GUGUGGAAGGAAGAGGUUUTT against Orai1 0.826, GCUGCUCUGCUAUAAGUAUTT against Kptn -0.269, AGAGAGACUUAUGUCUUUUTT against Draxin 0.381, GUUUGAAACUCACUGGAAATT against Vmn1r74 0.916, GGCUAUGGUUGUGAGUCAATT against Btbd7 -0.509, GGAGAAAGUCUUUGUGAACTT against Lipc -1.1, GGAUCAUUUUGAACAAGGCTT against Srl -0.199, GGUCAAGUCAAUUACAGUUTT against Aifm1 1.34, GGGCAAGGUGUAUUGUCAATT against D830050J10Rik -0.00921, CGUUUUUUUCCUGAGCUAUTT against Ccdc115 0.171, GGGUUGCUAAAUUUGAAACTT against Psg25 0.949, GGUGAUGAAAAUGACAUUCTT against Atp1b4 0.173, GCCAAGCCUUUAUCUACCGTT against Fam120b -0.749, CCAACAUCUCUGUAUACUGTT against Olfr8 0.178, GGUAAUUUGUAAGGAACCCTT against Rpusd2 -0.881, GGAAUAUCUUCUCAAGUCUTT against Zfp418 0.854, GGUUUGUGGGCUUUCACACTT against Pdxp -0.123, GGCCAACCCAGAGAGUACUTT against Cdc73 0.854, CCUUUGAAAAAGCUUGCCATT against Tor1aip2 0.0385, GAAGUCCUGAAGAAGCUCATT against Cartpt -1.01, GGAGACAGUGAGACAGAUATT against Ncoa3 1.14, GCAGGACAGCAGGAAAAGUTT against 2610028H24Rik -0.928, CCUGACUAUCUGAAAGCUATT against Sod2 -0.49, ACGCAAGUCACCAUCUUCUTT against Tas2r118 -0.823, GGAUGUAAAAUGCAGUUUATT against Tmsb4x 0.855, CGACACUGAGCUAAGAGAUTT against Vps36 -0.853, GCUUUUGAUCUGGAGACCCTT against Klhdc8b -0.358, GCUCUACUGCUUCCUUGUUTT against Olfr229 -0.338, GCAGAUAAUUUUAACCCUCTT against Inpp5b 0.641, CCAACAUCUAGAGAGUCUGTT against Olfr1031 -1.36, GCCCAACAAAAAGUUGAUUTT against Vrk2 0.627
